Results: patent publication US20220151997A1, “USE OF EPALRESTAT IN PREPARATION OF PANCREATIC CANCER DRUGS AND METHOD FOR VERIFYING INHIBITION EFFECT OF EPALRESTAT ON SECRETION OF EXOSOMES FROM PANCREATIC CANCER CELLS” (Affiliated Hospital of Nantong University, priority 2019, published 2022)
For at least one compound, name, drawing or mass did not settle the structure.

Columns and labels:
[1] = test system: exosome surface marker CD63; experiment: CD63 in exosomes of peripheral serum of nude mice by dot immunoblotting; type: in vivo; conditions: intraperitoneal 50 mg/kg/d for three days, vs control group
[2] = test system: pancreatic cancer cells; experiment: secretion of exosomes from pancreatic cancer cells (ultracentrifugation, TEM, BCA, Coomassie SDS-PAGE); type: cell-based; conditions: compared with the control group
[3] = test system: Capan-2 cell line; experiment: nude-mouse subcutaneous tumor formation model, tumor volume; type: in vivo, nude mice; conditions: Capan-2 subcutaneous tumor, intraperitoneal 50 mg/kg/d for three consecutive days, observed 7 days later, vs control group

## CC(/C=C1\SC(=S)N(CC(=O)O)C1=O)=C\c1ccccc1 [Epalrestat]
[1]
  amount of the exosomes secreted by the pancreatic cancer cells (CD63 expression in peripheral serum exosomes): decreased significantly
[2]; BCA method and Coomassie brilliant blue gel electrophoresis
  amount of proteins (exosome protein concentration): decreased significantly
[2]; cell supernatant exosomes, transmission electron microscope
  amount of the exosomes secreted from pancreatic cancer cells: decreased significantly
[3]
  tumor volume: became smaller
